PubChem BioAssay AID652259, Drosophila RNAi Screening Center | 2013

Purpose: 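Genome-wide hunt for genes that control Wingless pathway activity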 (primary screen)
Cell system: Drosophila clone 8 imaginal disc epithelial cells
Knock-down reagent: long dsRNA against Drosophila genes
Treatment: pathway stimulated by co-transfected Wingless expression plasmid
Detection: 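Dual luciferase reads per well after Wingless plasmid stimulation: reporter firefly light and Renilla control light; activity is firefly divided by Renilla, a ratio not deposited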
Direction: firefly reporter light: higher = more Wg reporter light, before normalisation; Renilla control light: higher = more transfected or surviving cells
Hit rule: 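Strong candidates differ from their plate mean by at least two out of four per-plate statistical tests; weak candidates meet just one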
Calls: active = candidate regulator (raises or lowers reporter); inactive = not a candidate
In all, the deposit lists about 22,000 reagents; this is a random part of those that have a named target and a result. Of all reagents, 233 (1.1%) were called active. 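Light values are raw, unnormalised plate reads; the ratio scores behind the reporter calls were not deposited.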 A plus sign joins genes that one reagent is predicted to hit. Not stated in the record: the amount of reagent, the time to read-out, the dose of the treatment.

| gene knocked down | dsRNA | reporter change call, replicate 1 | firefly reporter light, replicate 1 | firefly reporter light, replicate 2 | Renilla control light, replicate 1 | Renilla control light, replicate 2 | outcome |
| --- | --- | --- | --- | --- | --- | --- | --- |
| CG3309 | DRSC18301 | – | 9719 | – | 7380 | – | inactive |
| ec | DRSC17285 | – | 2214 | – | 1027 | – | inactive |
| ec | DRSC17286 | – | 1520 | – | 1501 | – | inactive |
| ec | DRSC18658 | Wg reporter activity raised | 43913 | – | 8036 | – | inactive |
| Arr1 | DRSC01867 | – | 3667 | 7492 | 1056 | 4058 | inactive |
| Naa15-16 | DRSC19440 | – | 4118 | 6396 | 1680 | 1770 | inactive |
| Naa15-16 | DRSC22846 | – | 7.84e5 | 8.62e5 | 2.32e5 | 3.20e5 | inactive |
| CG32091 | DRSC10141 | – | 9058 | – | 2304 | – | inactive |
| CG32091 | DRSC10820 | – | 8124 | – | 2885 | – | inactive |
| CG31431 | DRSC14589 | – | 38386 | – | 7639 | – | inactive |
| Pu | DRSC04645 | – | 13193 | – | 2674 | – | inactive |
| CG15255 | DRSC01869 | – | 2614 | 5942 | 837 | 2747 | inactive |
| Ir10a | DRSC18891 | – | 2903 | – | 1123 | – | inactive |
| Ir10a | DRSC19478 | – | 14759 | – | 7696 | – | inactive |
| Ir10a | DRSC19479 | – | 18477 | – | 8274 | – | inactive |
| Jhbp11 | DRSC15183 | – | 7029 | – | 2896 | – | inactive |
| egl | DRSC04682 | – | 3593 | 7041 | 915 | 3290 | inactive |
| CG10660 | DRSC09769 | – | 7301 | – | 2362 | – | inactive |
| Gart | DRSC03481 | – | 4151 | 4295 | 944 | 1746 | inactive |
| PolZ2 | DRSC12325 | – | 11092 | – | 2355 | – | inactive |
| CG32271 | DRSC08198 | – | 8680 | – | 2804 | – | inactive |
| CG34348 | DRSC19425 | – | 18732 | – | 9209 | – | inactive |
| CG34348 | DRSC19644 | – | 22973 | – | 9895 | – | inactive |
| Cyp4e3 | DRSC03306 | – | 1812 | 3413 | 791 | 2240 | inactive |
| CG31533 | DRSC13018 | – | 3900 | – | 1014 | – | inactive |
| CG15535 | DRSC15071 | – | 9162 | – | 3685 | – | inactive |
| dpr1 | DRSC05906 | – | 20121 | – | 8948 | – | inactive |
| dpr1 | DRSC06399 | – | 6615 | – | 2444 | – | inactive |
| CG6415 | DRSC02954 | – | 6906 | – | 2075 | – | inactive |
| CG42374 + Mettl5 | DRSC11085 | – | 9180 | – | 3047 | – | inactive |
| blp | DRSC15757 | – | 17141 | – | 4007 | – | inactive |
| CG4679 | DRSC06880 | – | 5264 | – | 1828 | – | inactive |
| mthl2 | DRSC10287 | – | 1621 | 6640 | 1429 | 3066 | inactive |
| CG31921 | DRSC00013 | – | 25137 | – | 12336 | – | inactive |
| CG2909 | DRSC18241 | – | 18240 | – | 9979 | – | inactive |
| Pkg21D | DRSC00772 | – | 5894 | – | 3260 | – | inactive |
| CG31205 | DRSC13438 | – | 3200 | – | 1834 | – | inactive |
| atl | DRSC16089 | – | 2840 | 6789 | 1069 | 1552 | inactive |
| Hpd | DRSC11670 | – | 6405 | – | 2455 | – | inactive |
| shn | DRSC05266 | – | 20595 | – | 17141 | – | inactive |
| shn | DRSC07681 | – | 13211 | – | 4311 | – | inactive |
| egg | DRSC04119 | – | 17232 | – | 4325 | – | inactive |
| egg | DRSC22534 | – | 1.08e6 | 1.11e6 | 6.06e5 | 1.80e5 | inactive |
| Nedd4 | DRSC11234 | – | 7240 | – | 3557 | – | inactive |
| Nedd4 | DRSC21548 | – | 3.55e5 | 3.82e5 | 1.66e5 | 1.68e5 | inactive |
| lncRNA:CR32385 | DRSC22966 | – | 4.76e5 | 5.28e5 | 2.50e5 | 2.26e5 | inactive |
| CG13473 | DRSC10017 | – | 6712 | – | 2116 | – | inactive |
| Caper | DRSC02137 | – | 21415 | – | 4976 | – | inactive |
| CG32391 | DRSC08865 | – | 3472 | – | 1698 | – | inactive |
| CG10845 | DRSC14272 | – | 12733 | – | 11444 | – | inactive |
| crp | DRSC03515 | – | 2706 | 4277 | 866 | 1449 | inactive |
| CG4328 | DRSC10410 | Wg reporter activity raised | 8935 | – | 704 | – | active |
| CG13937 | DRSC08406 | – | 5302 | – | 803 | – | inactive |
| Ibf1 | DRSC16419 | – | 16758 | – | 4732 | – | inactive |
| Rnp4F | DRSC18706 | – | 2603 | 7232 | 812 | 1912 | inactive |
| CG14787 | DRSC18606 | – | 14691 | – | 13744 | – | inactive |
| Abcd1 | DRSC17157 | – | 1867 | 4771 | 890 | 2247 | inactive |
| CrebB | DRSC20232 | – | 23585 | – | 8000 | – | inactive |
| CG4741 | DRSC04228 | – | 3041 | 9664 | 901 | 2832 | inactive |
| CG4741 | DRSC04485 | – | 2137 | 6858 | 738 | 2841 | inactive |
| trh | DRSC08355 | – | 8573 | – | 4058 | – | inactive |
| trh | DRSC08739 | – | 5126 | – | 3939 | – | inactive |
| PpY-55A | DRSC07513 | – | 3936 | – | 1520 | – | inactive |
| smp-30 | DRSC17059 | – | 13360 | – | 2539 | – | inactive |
| CG33217 | DRSC22907 | – | 9.27e5 | 8.81e5 | 4.78e5 | 20399 | inactive |
| CG31265 | DRSC15745 | – | 11253 | – | 2608 | – | inactive |
| RpLP0 | DRSC11878 | – | 35840 | – | 5105 | – | inactive |
| RpLP0 | DRSC22110 | – | 5.45e5 | 6.56e5 | 1.83e5 | 1.95e5 | inactive |
| hpRNA:CR18854 + IP3K1 | DRSC02218 | – | 5046 | – | 2994 | – | inactive |
| Est-Q | DRSC11835 | – | 6125 | – | 2786 | – | inactive |
| CG14282 | DRSC14763 | – | 16556 | – | 3828 | – | inactive |
| CG3448 | DRSC10368 | – | 5831 | – | 2309 | – | inactive |
| CG7251 | DRSC03039 | – | 6876 | – | 2860 | – | inactive |
| CG17224 | DRSC00489 | – | 3062 | 6634 | 1313 | 2105 | inactive |
| Desat2 | DRSC15919 | – | 18472 | – | 4298 | – | inactive |
| CG11458 | DRSC11666 | – | 16192 | – | 4609 | – | inactive |
| CG6550 | DRSC07001 | – | 15701 | – | 1687 | – | inactive |
| AnxB9 | DRSC14111 | – | 1584 | 5668 | 1045 | 1740 | inactive |
| CkIIalpha-i1 | DRSC11115 | – | 12201 | – | 4249 | – | inactive |
| Cyp316a1 | DRSC11130 | – | 1511 | 7878 | 1290 | 3045 | inactive |
| CG14374 | DRSC14834 | – | 9244 | – | 2269 | – | inactive |
| TwdlV | DRSC12226 | – | 16124 | – | 5202 | – | inactive |
| CG7272 | DRSC10795 | – | 8427 | – | 3104 | – | inactive |
| NELF-B | DRSC17734 | – | 2130 | 8043 | 860 | 2224 | inactive |
| alpha-Catr | DRSC04669 | – | 2805 | 8858 | 613 | 2448 | inactive |
| d4 | DRSC04881 | – | 21368 | – | 8252 | – | inactive |
| d4 | DRSC22674 | – | 4.89e5 | 5.09e5 | 2.06e5 | 67536 | inactive |
| hmw | DRSC16277 | – | 3417 | 5620 | 1297 | 1672 | inactive |
| CG32668 | DRSC18879 | – | 3261 | – | 711 | – | inactive |
| CG32052 | DRSC10966 | – | 7223 | – | 2806 | – | inactive |
| Hnf4 | DRSC01032 | – | 21600 | – | 12246 | – | inactive |
| Hnf4 | DRSC03344 | – | 3008 | – | 882 | – | inactive |
| CG6685 | DRSC10695 | – | 5883 | – | 3306 | – | inactive |
